The target of assay [1] is T1, ASGR1 with a C-Flag tag, stably overexpressed in HepG2 cells (human) (UniProt P07306).
T1 sequence: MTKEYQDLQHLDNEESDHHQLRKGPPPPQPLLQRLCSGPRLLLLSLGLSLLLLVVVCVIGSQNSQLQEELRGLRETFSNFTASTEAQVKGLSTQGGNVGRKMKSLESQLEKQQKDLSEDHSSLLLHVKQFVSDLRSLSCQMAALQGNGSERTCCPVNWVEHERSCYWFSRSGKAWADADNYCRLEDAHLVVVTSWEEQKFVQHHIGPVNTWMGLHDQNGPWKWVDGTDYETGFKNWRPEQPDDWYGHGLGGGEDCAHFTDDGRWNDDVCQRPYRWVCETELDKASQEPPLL
Kind of assay: affinity purification with mass spectrometry; lysate of HepG2 cells stably overexpressing ASGR1 (C-Flag tag); anti-Flag antibody or isotype mouse IgG overnight at 4°C, Protein A/G-Agarose beads, five washes with IP Lysis buffer; solution and beads samples by LC-MS/MS; proteins in the IgG control excluded.

Protein sequences, listed by entry. Tags and fused reporters are not part of them.
UniProt Q15165: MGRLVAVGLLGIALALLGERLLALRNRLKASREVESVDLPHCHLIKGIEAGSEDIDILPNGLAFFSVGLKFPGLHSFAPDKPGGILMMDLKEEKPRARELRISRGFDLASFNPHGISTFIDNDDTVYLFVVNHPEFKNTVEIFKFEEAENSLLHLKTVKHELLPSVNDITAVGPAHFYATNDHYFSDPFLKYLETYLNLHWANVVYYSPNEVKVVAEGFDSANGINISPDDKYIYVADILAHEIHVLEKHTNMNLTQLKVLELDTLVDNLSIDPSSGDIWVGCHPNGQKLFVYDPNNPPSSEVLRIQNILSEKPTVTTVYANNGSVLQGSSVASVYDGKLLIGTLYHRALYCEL

The target in assay [2] is T1, ASGR1 with a C-Flag tag, stably overexpressed in HepG2 cells (human). Described as above. The source holds these as a separate data set.

Like-named read-outs stand apart in the source and are kept apart here. Results are given in words; binding and its absence hold for the method and conditions named. Binding seen in cells or lysates may run through a third protein. Here binding means that the protein was enriched with, or labelled near, the bait; the list need not be complete. Where a sequence is shown, tags or fusion partners need not be part of it.

In the case of “paraoxonase-2 (PON2), endogenous in HepG2 cells (from UniProt Q15165 1-354)”, the binding result in assay [1] is listed as “binds”.

B1: GPX8, endogenous in HepG2 cells (protein, UniProt Q8TED1 1-209)
chain: MEPLAAYPLKCSGPRAKVFAVLLSIVLCTVTLFLLQLKFLKPKINSFYAFEVKDAKGRTVSLEKYKGKVSLVVNVASDCQLTDRNYLGLKELHKEFGPSHFSVLAFPCNQFGESEPRPSKEVESFARKNYGVTFPIFHKIKILGSEGEPAFRFLVDSSKKEPRWNFWKYLVNPEGQVVKFWKPEEPIEVIRPDIAALVRQVIIKKKEDL
As to B1, in assay [2], the binding result is listed as “binds”.

The record behind these values is publication PMC11269292.
